These are yes or no findings as the source states them, for the method shown. Binding seen in cells or lysates may run through a third protein. Binding can be weak; no strength is given. For some of these results: Sequences can lack the tags named with a protein.
Assays:
[1] = biological target: c-Myc-tagged Fbxo16 (mouse) (UniProt Q9QZM9); test: co-IP; HEK293T transfected with the c-Myc-tagged bait (and Flag-tagged partner where given); whole cell extract in RIPA buffer; IP with anti-c-Myc agarose overnight, four washes; immunoblot; in some panels cells were first transfected with control siRNA or siRNA against Cullin 1, Skp1 or Fbxo proteins
[2] = biological target: c-Myc-tagged Fbxo16 (mouse) (UniProt Q9QZM9); test: co-IP; HEK293T transfected with c-Myc-Fbxo16; lysis in 50 mM Tris pH 8.0, 0.5% NP-40, 5 mM EDTA, 50 mM NaCl, 50 mM sodium fluoride; IP with anti-c-Myc; immunoblot with anti-Skp1

The chains behind the UniProt entries cited, without tags or fusion partners. Where a name states a change or a piece, a line headed by the entry shows the natural chain unless it says otherwise. Residues count along the entry.
UniProt Q9QZM9: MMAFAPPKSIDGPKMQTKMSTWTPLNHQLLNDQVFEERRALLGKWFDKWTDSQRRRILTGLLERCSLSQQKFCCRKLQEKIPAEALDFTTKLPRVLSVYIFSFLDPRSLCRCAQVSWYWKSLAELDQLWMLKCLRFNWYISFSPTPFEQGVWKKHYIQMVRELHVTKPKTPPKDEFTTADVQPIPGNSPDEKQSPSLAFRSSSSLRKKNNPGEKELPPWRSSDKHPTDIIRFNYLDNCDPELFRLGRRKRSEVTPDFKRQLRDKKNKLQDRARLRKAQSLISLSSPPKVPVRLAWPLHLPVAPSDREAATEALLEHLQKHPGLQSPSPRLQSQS
UniProt Q04207: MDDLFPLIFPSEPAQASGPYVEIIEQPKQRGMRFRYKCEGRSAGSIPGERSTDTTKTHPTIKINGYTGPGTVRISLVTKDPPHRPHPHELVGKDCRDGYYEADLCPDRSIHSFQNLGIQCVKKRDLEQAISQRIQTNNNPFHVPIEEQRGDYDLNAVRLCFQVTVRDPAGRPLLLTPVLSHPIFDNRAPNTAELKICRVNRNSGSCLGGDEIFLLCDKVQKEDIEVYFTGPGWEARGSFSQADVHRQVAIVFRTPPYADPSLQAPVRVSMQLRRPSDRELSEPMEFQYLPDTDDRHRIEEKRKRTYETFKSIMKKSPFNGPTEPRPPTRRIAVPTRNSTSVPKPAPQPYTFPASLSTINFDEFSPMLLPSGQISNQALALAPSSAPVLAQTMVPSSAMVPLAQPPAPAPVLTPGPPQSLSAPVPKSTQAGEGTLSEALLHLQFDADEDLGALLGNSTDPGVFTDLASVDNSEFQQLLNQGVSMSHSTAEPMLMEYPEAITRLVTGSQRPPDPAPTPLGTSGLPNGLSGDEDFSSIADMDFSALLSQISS
UniProt P25799, residues 1-431: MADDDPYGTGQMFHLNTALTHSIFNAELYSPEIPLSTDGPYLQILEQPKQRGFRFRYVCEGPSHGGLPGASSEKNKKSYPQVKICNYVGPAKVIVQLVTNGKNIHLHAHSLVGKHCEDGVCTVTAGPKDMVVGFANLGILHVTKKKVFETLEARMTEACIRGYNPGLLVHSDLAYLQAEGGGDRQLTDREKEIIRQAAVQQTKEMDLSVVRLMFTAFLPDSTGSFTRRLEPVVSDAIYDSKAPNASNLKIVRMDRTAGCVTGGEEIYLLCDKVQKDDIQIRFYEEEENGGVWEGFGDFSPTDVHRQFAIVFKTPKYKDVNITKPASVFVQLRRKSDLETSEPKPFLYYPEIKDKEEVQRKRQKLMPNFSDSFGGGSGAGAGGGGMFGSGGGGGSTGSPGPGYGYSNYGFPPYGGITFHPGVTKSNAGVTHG
UniProt P63208: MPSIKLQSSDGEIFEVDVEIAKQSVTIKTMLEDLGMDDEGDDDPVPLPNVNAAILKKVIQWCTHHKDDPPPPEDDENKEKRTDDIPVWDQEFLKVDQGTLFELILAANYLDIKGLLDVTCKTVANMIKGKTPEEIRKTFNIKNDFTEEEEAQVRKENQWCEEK

Molecule | binding [1] | binding [2]
Flag-tagged p65 (from UniProt Q04207 1-549) | binds | –
Flag-tagged murine p50 (from UniProt P25799 1-431) | no binding | –
Skp1 (from UniProt P63208 1-163) | – | binds
Flag-tagged PDLIM2 (protein, UniProt Q8R1G6 1-349) MALTVDVAGPAPWGFRISGGRDFHTPIIVTKVTERGKAEAADLRPGDIIVAINGQSAENMLHAEAQSKIRQSASPLRLQLDRSQTASPGQTNGEGSLEVLATRFQGSLRTHRDSQSSQRSACFSPVSLSPRPCSPFSTPPPTSPVALSKEDMIGCSFQSLTHSPGLAAAHHLTYPGHPTSQQAGHSSPSDSAVRVLLHSPGRPSSPRFSSLDLEEDSEVFKMLQENRQGRAAPRQSSSFRLLQEALEAEERGGTPAFVPSSLSSQASLPTSRALATPPKLHTCEKCSVNISNQAVRIQEGRYRHPGCYTCADCGLNLKMRGHFWVGNELYCEKHARQRYSMPGTLNSRA | binds | –

— paper PMC12170509
